Among the data in the supplement of paper PMC10849652 are log2 fold change values, retold here.

By UniProt entry, the sequences of proteins in these tests, tags left out. Where a name states a change or a piece, a line headed by the entry shows the natural chain unless it says otherwise.
UniProt Q9NQG7: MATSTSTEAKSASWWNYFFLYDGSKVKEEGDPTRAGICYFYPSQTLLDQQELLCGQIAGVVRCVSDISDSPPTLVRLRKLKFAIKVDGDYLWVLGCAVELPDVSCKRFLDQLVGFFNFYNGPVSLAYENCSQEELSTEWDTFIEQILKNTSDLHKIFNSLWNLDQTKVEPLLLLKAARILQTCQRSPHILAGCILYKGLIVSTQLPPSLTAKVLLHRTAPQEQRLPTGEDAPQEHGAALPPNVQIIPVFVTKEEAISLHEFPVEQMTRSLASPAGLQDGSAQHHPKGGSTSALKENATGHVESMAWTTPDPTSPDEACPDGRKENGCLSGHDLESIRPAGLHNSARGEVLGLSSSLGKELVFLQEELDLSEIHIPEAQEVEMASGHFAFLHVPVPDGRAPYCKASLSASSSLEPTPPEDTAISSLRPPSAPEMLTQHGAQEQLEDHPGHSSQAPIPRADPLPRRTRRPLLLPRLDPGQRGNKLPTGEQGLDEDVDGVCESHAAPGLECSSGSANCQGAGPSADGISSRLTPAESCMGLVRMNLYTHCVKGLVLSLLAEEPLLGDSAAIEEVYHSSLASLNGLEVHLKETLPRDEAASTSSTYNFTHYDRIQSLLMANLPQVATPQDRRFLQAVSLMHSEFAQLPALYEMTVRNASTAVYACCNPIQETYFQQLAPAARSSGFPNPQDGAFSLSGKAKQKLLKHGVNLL
UniProt Q9P0W2: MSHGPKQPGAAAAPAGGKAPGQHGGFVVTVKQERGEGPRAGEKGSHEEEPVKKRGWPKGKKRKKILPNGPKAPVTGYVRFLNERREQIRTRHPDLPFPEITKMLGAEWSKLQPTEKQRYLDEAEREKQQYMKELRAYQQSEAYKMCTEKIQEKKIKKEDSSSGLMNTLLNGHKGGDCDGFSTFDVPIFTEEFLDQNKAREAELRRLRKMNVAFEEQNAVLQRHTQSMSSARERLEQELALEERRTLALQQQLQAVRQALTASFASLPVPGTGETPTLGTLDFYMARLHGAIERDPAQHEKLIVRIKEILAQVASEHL
UniProt O75506: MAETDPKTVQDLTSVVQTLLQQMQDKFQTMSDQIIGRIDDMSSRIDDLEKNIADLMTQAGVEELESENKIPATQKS
UniProt Q9Y241: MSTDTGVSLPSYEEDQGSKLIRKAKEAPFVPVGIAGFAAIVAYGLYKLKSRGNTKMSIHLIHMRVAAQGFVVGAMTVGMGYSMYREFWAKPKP
UniProt Q9Y2F5: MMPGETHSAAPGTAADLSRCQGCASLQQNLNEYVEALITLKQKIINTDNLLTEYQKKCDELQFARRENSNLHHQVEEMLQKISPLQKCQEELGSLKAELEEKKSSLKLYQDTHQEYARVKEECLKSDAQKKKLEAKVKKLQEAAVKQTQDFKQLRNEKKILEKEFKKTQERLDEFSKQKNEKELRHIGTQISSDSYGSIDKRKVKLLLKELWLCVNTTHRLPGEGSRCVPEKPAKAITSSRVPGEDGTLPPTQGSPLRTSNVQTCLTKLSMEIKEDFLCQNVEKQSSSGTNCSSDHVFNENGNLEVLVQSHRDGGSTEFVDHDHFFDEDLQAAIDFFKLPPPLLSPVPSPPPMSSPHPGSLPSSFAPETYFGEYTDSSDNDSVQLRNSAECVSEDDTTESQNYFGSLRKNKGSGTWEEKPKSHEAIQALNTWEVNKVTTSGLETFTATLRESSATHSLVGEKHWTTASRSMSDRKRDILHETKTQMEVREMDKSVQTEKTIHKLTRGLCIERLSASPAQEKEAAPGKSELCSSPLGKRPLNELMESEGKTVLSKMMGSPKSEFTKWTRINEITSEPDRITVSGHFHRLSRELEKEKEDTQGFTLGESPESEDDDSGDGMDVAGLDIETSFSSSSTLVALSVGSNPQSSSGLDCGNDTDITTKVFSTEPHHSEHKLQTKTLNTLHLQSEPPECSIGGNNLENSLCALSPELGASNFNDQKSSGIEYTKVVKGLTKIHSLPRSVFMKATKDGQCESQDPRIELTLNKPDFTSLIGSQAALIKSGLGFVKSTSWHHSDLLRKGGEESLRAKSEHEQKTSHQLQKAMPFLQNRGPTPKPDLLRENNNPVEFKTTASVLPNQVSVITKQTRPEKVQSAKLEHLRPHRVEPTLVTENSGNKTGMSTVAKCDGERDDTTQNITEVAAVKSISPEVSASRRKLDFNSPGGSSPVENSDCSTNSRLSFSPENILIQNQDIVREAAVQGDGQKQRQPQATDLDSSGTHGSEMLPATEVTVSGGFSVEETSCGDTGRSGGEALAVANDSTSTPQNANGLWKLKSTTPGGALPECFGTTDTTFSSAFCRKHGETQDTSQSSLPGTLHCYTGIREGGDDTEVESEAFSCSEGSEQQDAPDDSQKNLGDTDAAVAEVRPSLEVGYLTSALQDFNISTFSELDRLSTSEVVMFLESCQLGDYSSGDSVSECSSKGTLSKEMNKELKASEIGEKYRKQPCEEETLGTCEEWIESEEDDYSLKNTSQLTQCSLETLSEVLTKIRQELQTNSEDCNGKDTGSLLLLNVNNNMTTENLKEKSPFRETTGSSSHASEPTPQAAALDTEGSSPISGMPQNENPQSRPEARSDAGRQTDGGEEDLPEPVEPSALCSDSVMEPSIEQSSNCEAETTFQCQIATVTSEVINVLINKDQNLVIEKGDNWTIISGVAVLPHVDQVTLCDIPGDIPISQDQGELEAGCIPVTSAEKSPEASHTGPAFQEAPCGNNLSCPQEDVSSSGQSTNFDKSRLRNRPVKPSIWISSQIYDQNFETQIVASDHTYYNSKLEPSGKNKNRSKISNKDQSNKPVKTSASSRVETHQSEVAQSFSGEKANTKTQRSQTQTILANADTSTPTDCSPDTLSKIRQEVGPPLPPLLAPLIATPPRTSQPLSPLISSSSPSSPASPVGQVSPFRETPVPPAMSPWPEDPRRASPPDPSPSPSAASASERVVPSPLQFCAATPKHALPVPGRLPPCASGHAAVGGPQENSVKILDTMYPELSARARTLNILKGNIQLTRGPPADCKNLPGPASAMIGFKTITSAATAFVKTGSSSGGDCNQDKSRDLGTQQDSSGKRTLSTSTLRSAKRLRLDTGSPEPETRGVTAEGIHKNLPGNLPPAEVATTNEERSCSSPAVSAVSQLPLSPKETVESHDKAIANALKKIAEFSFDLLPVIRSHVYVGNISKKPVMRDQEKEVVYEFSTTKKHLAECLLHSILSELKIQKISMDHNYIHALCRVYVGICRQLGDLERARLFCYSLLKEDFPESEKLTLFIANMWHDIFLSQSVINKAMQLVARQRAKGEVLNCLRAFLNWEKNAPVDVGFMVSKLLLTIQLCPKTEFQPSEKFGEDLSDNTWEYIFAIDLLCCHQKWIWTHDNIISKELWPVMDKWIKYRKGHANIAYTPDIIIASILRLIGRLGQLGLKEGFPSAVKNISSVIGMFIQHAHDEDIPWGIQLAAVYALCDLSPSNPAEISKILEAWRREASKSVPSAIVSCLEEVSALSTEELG
UniProt O43390: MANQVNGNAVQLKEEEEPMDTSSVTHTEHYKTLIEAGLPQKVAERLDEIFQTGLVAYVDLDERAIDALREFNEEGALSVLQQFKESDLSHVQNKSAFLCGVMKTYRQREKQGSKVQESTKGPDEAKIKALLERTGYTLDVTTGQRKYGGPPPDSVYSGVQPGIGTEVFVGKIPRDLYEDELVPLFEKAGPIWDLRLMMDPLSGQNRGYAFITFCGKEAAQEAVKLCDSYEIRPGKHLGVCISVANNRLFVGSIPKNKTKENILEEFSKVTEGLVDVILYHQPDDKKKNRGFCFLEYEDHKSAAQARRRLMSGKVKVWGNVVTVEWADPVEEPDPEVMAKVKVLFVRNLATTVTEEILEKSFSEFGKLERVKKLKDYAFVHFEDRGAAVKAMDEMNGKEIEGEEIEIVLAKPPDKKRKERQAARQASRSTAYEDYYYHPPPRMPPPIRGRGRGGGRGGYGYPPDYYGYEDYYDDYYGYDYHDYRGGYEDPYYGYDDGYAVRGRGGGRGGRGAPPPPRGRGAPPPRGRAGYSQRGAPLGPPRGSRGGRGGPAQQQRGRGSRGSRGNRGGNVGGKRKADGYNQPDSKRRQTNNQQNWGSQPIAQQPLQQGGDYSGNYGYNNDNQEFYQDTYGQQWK
UniProt P17483: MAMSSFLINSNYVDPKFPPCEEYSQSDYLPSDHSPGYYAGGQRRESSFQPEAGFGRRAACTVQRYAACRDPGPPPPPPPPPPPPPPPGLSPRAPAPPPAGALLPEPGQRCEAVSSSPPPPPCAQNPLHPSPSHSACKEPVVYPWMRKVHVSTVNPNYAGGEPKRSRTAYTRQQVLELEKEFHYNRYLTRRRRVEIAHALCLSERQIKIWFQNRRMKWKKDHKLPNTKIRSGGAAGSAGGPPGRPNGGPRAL
UniProt Q8TCT9: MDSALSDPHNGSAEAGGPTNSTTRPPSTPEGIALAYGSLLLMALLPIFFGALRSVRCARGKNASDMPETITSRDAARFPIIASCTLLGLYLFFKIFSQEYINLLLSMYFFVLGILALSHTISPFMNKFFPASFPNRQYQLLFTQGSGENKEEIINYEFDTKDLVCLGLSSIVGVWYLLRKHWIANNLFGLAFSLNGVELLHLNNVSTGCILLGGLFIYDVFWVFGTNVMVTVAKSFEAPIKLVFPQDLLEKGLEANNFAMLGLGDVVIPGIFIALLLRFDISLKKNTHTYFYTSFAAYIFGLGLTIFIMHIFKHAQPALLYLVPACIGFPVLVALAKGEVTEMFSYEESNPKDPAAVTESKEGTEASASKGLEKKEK
UniProt H0YH80: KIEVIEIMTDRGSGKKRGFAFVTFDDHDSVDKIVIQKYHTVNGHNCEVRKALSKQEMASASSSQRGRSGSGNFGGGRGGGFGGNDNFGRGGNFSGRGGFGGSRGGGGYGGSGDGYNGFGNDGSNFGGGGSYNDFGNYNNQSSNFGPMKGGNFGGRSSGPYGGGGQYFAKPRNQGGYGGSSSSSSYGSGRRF
UniProt P41134: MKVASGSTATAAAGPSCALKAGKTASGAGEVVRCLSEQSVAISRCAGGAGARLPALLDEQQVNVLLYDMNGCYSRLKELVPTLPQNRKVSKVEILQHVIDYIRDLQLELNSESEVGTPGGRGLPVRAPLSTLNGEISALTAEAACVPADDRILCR
UniProt Q96ED9: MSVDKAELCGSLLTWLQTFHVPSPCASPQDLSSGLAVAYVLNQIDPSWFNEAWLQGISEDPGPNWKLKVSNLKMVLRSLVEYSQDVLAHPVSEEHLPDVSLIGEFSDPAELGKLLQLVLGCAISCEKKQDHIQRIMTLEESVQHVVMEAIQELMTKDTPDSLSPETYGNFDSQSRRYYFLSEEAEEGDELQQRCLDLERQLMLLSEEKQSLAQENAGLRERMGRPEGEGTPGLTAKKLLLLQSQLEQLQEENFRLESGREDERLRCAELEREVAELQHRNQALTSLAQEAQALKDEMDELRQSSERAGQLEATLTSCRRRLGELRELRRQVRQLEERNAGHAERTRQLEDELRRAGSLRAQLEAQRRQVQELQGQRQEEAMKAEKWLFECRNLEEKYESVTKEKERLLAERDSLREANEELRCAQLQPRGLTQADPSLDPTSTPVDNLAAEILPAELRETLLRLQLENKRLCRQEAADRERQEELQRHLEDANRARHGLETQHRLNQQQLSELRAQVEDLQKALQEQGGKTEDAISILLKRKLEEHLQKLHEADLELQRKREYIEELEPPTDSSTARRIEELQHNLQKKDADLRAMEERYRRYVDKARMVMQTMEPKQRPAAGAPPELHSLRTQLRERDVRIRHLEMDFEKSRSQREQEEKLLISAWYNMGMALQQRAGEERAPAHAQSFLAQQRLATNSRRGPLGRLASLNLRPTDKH
UniProt P13747, whole entry, looked up: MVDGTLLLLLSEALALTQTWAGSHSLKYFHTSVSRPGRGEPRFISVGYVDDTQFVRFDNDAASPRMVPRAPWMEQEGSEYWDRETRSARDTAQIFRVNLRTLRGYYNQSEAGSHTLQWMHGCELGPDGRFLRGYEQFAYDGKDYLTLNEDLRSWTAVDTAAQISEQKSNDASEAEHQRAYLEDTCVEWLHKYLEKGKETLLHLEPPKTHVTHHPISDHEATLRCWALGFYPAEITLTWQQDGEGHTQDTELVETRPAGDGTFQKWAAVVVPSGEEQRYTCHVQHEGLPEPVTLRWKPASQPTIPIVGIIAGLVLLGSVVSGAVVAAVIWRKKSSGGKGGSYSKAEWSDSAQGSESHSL
UniProt Q9NSB8: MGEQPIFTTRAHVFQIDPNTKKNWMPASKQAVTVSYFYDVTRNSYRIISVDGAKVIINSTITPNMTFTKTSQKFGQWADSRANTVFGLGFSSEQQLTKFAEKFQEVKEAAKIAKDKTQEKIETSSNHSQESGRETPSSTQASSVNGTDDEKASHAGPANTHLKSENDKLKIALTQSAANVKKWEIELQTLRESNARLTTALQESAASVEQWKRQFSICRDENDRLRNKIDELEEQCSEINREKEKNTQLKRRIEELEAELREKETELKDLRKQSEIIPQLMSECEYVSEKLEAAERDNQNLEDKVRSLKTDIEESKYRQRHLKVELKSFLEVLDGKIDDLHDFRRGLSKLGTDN

The list shows a part of the results.

Compound in one test: CC1=C(C(CC(=O)N1)C2=CC=C(C=C2)C(F)(F)F)C(=O)NC3=C(C=C4C(=C3)C=NN4)F
The test can be described thus: log2 fold change, soluble protein after heating vs DMSO (PISA); higher = thermal stabilisation; K562 cells, 10 uM, 30 min; active = over 0.2 and 3.5 SD of the protein, either way, in both replicates (recomputed). In outline:
(§1)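 Values are thermal stability changes relative to control samples and are taken from duplicates. They are stated as log2 fold changes. Before quantification by TMTpro 16plex LC-MS/MS with equalised channel sums, K562 cells at 2×10^6 cells/mL were treated with 10 μM compound for 30 min, heated in aliquots for 3 min across 48°C-58°C, pooled, extracted in PBS with 0.5% NP-40 at 4°C, and centrifuged at 21,000xg for 90 min to give the soluble supernatant.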
Consider IBTK (UniProt Q9P2D0), for which the log2 fold change is inactive: 0.114.
For HPS4 isoform 4 (UniProt Q9NQG7), the log2 fold change was inactive: 0.004.
Take HMG20B (UniProt Q9P0W2): the log2 fold change is inactive: 0.174.
On to HSBP1 (UniProt O75506), for which the log2 fold change was inactive: 0.016.
Consider HIGD1A isoform 2 (UniProt Q9Y241), for which the log2 fold change was inactive: -0.064.
Consider ICE1 (UniProt Q9Y2F5), for which the log2 fold change was inactive: 0.14.
For the target HNRNPR (UniProt O43390), the log2 fold change is inactive: -0.088.
For the target HOXB4 (UniProt P17483), the log2 fold change was inactive: 0.082.
The same measure, in the same setting: the result for HM13 (UniProt Q8TCT9) reads inactive: 0.028; that for HNRNPA1 (UniProt H0YH80), inactive: 0.014; that for ID1 (UniProt P41134), inactive: -0.179.

Compound in another test: CC1=C(C2=C(C=C1)C(=O)C3=CC=CC=C3N2CCCN)C
The description is as above. In outline: as §1
On to IBTK (UniProt Q9P2D0), for which the log2 fold change is inactive: 0.027.
On to HPS4 isoform 4 (UniProt Q9NQG7), for which the log2 fold change is inactive: 0.243.
Regarding HOOK2 (UniProt Q96ED9), the log2 fold change was inactive: 0.084.
Still for that read-out and setting: the result for HUWE1, A0A087X1S3 reads inactive: -0.083.
For the target HNRNPUL1 (UniProt M0R247), the log2 fold change was inactive: 0.008.
On to HNRNPU isoform 2 (UniProt Q00839), for which the log2 fold change was inactive: -0.331.
Still for that read-out and setting: the result for HMBS (UniProt F5H226) reads inactive: 0.104.
Still for that read-out and setting: next, HM13 (UniProt Q8TCT9): inactive: -0.043.
With HSP90AA2P (UniProt Q14568), the log2 fold change is inactive: -0.202.
On the same count and under the same terms, next, HNRNPA1 (UniProt H0YH80): inactive: -0.655; ID1 (UniProt P41134): inactive: 0.029.
Regarding HLA-E (UniProt P13747), the log2 fold change was inactive: -0.139.
As to HNRNPK isoform 3 (UniProt P61978), the log2 fold change was inactive: 0.21.
For the target HOMER2 (UniProt Q9NSB8), the log2 fold change is inactive: 0.104.
